Results are given in words; binding and its absence hold for the method and conditions named. Binding seen in cells or lysates may run through a third protein. Some results given as binding are weak or reduced against the parent protein; the word gives no strength. For part of these data: Where a sequence is shown, tags or fusion partners need not be part of it.
T1: endogenous NT5DC2 (human (endogenous in PLC/RLF/5)) (UniProt Q9H857)
T1 sequence: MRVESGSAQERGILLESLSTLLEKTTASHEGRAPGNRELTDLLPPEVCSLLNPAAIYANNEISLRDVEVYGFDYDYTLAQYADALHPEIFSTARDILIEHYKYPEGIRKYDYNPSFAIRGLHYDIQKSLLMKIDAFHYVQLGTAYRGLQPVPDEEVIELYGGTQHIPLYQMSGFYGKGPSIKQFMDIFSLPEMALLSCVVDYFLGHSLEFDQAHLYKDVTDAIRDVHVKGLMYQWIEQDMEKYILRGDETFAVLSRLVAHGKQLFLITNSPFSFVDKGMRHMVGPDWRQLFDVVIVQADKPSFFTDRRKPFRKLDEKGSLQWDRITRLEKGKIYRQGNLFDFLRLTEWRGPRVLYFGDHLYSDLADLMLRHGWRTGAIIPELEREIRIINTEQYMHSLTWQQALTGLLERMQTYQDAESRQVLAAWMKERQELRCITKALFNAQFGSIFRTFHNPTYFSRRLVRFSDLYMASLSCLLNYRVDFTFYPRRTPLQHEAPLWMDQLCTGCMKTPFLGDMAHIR

T2: GFP-tagged NT5DC2 (5'-Nucleotidase domain containing 2) (human) (UniProt Q9H857)
T2 sequence: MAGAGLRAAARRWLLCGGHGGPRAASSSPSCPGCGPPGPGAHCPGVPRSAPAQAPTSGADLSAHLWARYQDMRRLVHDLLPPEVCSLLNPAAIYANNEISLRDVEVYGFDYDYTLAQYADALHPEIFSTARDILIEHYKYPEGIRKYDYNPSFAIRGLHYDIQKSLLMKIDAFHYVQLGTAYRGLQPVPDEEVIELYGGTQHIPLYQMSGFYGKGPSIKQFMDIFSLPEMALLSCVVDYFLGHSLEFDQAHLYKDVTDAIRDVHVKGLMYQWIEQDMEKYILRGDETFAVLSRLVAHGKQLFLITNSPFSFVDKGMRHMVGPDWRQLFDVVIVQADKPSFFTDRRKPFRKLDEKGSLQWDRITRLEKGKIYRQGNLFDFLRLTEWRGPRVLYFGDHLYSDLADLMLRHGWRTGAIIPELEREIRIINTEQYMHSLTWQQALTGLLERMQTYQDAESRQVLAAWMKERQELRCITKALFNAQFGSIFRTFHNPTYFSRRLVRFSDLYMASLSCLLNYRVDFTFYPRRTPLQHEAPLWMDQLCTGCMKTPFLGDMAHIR

B1: endogenous NT5DC2 (protein, UniProt Q9H857 1-520)
chain: MRVESGSAQERGILLESLSTLLEKTTASHEGRAPGNRELTDLLPPEVCSLLNPAAIYANNEISLRDVEVYGFDYDYTLAQYADALHPEIFSTARDILIEHYKYPEGIRKYDYNPSFAIRGLHYDIQKSLLMKIDAFHYVQLGTAYRGLQPVPDEEVIELYGGTQHIPLYQMSGFYGKGPSIKQFMDIFSLPEMALLSCVVDYFLGHSLEFDQAHLYKDVTDAIRDVHVKGLMYQWIEQDMEKYILRGDETFAVLSRLVAHGKQLFLITNSPFSFVDKGMRHMVGPDWRQLFDVVIVQADKPSFFTDRRKPFRKLDEKGSLQWDRITRLEKGKIYRQGNLFDFLRLTEWRGPRVLYFGDHLYSDLADLMLRHGWRTGAIIPELEREIRIINTEQYMHSLTWQQALTGLLERMQTYQDAESRQVLAAWMKERQELRCITKALFNAQFGSIFRTFHNPTYFSRRLVRFSDLYMASLSCLLNYRVDFTFYPRRTPLQHEAPLWMDQLCTGCMKTPFLGDMAHIR

Assays:
[1] = molecular target: T1, endogenous NT5DC2 (human (endogenous in PLC/RLF/5)); assay: co-IP; endogenous proteins in PLC/RLF/5 lysate; anti-NT5DC2 or anti-EGFR antibody with protein A beads, IgG as control; western blot
[2] = molecular target: T2, GFP-tagged NT5DC2 (5'-Nucleotidase domain containing 2) (human); assay: co-IP; anti-GFP beads (GFP-Trap agarose) on lysates of MHCC97H or PLC/RLF/5 cells expressing GFP-tagged NT5DC2, its truncations or a control vector; western blot for EGFR
[3] = molecular target: epidermal growth factor receptor (EGFR) (human (endogenous in MHCC97H and PLC/RLF/5)) (UniProt P00533); assay: co-IP; endogenous proteins in PLC/RLF/5 lysate; anti-NT5DC2 or anti-EGFR antibody with protein A beads, IgG as control; western blot

Molecule | binding [1] | binding [2] | binding [3]
epidermal growth factor receptor (EGFR) (from UniProt P00533 25-1210) | binds | binds | –
B1 | – | – | binds
